Assay results as given in article PMC4099368.
Numbering of substitutions follows the chain as printed. These are yes or no findings as the source states them, for the method shown. Binding seen in cells or lysates may run through a third protein. Some results given as binding are weak or reduced against the parent protein; the word gives no strength. Sequences can lack the tags named with a protein.

Protein sequences, listed by entry. Tags and fused reporters are not part of them. Residues count along the entry.
UniProt P43694, residues 200-254: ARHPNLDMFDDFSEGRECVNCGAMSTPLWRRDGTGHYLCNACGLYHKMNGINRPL

Tests used:
[1] = molecular target: T1, GST-ZFPM2/FOG2 p.T843M (human) (UniProt Q8WW38); experiment: pull-down; GST-ZFPM2/FOG2 (wild type or mutant) bound to 200 µl glutathione resin (Pierce GST Protein Interaction Pull-Down kit), incubated with GATA4 fragment at 4°C; washed with 25 mM Tris-HCl pH 7.2, 150 mM NaCl; eluate on SDS-PAGE, Coomassie staining
T1 sequence: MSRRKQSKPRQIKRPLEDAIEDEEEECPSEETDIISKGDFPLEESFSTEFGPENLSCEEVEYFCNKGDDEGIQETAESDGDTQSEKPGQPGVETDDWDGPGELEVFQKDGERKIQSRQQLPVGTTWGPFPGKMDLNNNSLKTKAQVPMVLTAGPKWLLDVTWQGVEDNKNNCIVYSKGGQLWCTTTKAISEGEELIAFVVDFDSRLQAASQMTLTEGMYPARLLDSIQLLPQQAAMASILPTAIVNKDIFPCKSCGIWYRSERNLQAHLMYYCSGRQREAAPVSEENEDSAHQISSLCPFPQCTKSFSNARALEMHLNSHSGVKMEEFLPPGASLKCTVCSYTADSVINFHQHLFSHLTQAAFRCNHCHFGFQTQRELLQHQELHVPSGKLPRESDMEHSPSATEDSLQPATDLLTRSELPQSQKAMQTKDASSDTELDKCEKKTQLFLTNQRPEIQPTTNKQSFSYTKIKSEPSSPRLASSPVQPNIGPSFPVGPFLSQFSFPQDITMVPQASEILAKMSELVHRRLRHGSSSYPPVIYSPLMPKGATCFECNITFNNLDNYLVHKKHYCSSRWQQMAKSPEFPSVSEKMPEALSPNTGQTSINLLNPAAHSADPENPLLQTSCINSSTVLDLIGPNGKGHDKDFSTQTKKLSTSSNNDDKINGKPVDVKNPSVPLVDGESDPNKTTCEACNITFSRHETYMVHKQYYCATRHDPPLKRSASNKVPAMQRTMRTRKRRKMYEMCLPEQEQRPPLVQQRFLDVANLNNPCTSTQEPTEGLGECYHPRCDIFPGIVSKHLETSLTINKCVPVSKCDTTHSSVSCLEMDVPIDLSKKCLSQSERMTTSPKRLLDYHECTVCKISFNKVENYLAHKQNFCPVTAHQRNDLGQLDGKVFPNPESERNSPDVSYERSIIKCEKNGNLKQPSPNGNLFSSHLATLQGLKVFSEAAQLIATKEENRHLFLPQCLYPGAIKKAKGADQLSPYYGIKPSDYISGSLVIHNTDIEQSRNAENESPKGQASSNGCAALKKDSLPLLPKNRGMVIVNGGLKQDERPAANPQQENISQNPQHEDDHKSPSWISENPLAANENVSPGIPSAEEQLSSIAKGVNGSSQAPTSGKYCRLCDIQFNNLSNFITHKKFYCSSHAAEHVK

[2] = molecular target: T2, GST-ZFPM2/FOG2 p.I227V (human) (UniProt Q8WW38); experiment: as above
T2 sequence: T1 sequence with I227V, M843T

- binding [1]: binds
- binding [2]: binds
Substance: N-terminal zinc-finger sequence of GATA4 (residues 200-254) (from UniProt P43694 200-254) (domain or fragment)
